This note sets out measurements from paper PMC2911377.

Amino acid sequences for entries named in this document (tags omitted). A change or cut given only in a name is not applied to a line headed by its entry.
UniProt O75581: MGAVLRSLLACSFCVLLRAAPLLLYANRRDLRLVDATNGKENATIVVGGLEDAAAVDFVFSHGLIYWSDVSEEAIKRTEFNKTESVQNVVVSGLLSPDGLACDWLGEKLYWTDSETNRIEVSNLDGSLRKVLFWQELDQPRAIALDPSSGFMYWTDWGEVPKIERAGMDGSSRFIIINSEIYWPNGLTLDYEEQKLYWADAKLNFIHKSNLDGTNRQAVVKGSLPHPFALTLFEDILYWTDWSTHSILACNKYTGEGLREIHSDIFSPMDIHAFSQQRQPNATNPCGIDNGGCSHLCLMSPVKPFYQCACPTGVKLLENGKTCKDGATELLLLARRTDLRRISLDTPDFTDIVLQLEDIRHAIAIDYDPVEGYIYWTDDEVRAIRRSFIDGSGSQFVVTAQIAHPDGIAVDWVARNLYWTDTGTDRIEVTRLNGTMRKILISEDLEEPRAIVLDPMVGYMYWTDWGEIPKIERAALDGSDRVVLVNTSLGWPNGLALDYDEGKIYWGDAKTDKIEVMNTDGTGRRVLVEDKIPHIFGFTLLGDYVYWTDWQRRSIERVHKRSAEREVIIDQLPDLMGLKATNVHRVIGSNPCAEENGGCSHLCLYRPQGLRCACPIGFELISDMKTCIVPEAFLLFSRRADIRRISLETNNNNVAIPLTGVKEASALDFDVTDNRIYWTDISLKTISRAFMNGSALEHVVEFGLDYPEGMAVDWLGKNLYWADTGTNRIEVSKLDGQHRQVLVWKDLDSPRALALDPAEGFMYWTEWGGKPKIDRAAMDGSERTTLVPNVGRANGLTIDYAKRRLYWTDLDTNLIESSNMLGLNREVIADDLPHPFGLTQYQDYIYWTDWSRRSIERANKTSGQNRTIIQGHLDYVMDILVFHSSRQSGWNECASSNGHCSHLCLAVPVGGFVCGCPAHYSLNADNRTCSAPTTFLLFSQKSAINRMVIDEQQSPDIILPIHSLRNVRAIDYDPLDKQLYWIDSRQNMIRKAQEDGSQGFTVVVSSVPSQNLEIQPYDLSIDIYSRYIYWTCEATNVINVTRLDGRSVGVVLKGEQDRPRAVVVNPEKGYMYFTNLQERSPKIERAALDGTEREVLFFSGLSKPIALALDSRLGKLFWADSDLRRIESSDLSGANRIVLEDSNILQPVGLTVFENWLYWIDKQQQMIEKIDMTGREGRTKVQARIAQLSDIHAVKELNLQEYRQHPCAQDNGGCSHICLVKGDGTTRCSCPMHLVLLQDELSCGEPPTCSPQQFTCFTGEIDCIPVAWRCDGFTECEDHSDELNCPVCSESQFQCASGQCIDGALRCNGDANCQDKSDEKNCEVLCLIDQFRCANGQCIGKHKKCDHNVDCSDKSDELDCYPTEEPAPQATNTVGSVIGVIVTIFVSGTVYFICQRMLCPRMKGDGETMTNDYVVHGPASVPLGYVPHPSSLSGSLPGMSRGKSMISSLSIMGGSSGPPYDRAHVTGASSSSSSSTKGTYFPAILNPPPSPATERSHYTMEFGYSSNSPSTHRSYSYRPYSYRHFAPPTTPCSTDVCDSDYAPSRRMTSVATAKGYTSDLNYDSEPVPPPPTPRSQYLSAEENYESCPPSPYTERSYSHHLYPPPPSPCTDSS

No constants are given. Whether binding was seen depends on the method and setting. In cells and extracts the contact can be indirect. For some assays here: Binding can be weak; no strength is given. Sequences can lack the tags named with a protein.

In assay [1] the target is T1, amino terminal enhancer of Split (AES), HA tagged (human) (UniProt Q08117).
T1 sequence: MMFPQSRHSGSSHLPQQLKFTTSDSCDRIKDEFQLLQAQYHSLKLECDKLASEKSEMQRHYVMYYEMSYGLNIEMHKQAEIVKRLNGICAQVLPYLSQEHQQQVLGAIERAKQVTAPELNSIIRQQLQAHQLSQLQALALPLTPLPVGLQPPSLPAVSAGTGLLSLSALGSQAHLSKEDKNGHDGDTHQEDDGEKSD
In words: co-IP; cytosolic fraction (50 µg) of HEK 293T cells co-transfected with AES-HA and a GFP-LRP6-ICD construct, 48 h; anti-HA antibody on M-280 sheep anti-mouse magnetic beads, 4°C, 3 h, immunoprecipitation buffer; washed with high salt PBS (350 mM NaCl); blot with anti-GFP.

Assay [2] has as its target T1, amino terminal enhancer of Split (AES), HA tagged (human). The assay can be described thus: co-IP; nuclear fraction (50 µg) of HEK 293T cells co-transfected with AES-HA and a GFP-LRP6-ICD construct, 48 h; anti-HA antibody on M-280 sheep anti-mouse magnetic beads, 4°C, 3 h, immunoprecipitation buffer (0.5% NP-40, 150 mM NaCl, 10 mM Tris pH 7.4); washed with high salt PBS (350 mM NaCl); blot with anti-GFP.

Take “GFP tagged wild type LRP6 intracellular domain (LRP6-ICD) (from UniProt O75581) (domain or fragment)”: the results for the binding entry in assay [1] and in assay [2] were “no binding (only in the cytosolic fraction)” and “binds”, respectively.
